The list shows a part of the results.
Biological target: OsWRKY34 (Oryza sativa, UniProt Q0JBA9 1-250)
Experiment: protein-binding microarray (RPBM); PBS, 2% BSA, 51.3 ng/ul salmon testes DNA, 50 uM zinc acetate, 200 nM TF, 25 C, 1 h; high values mean tight binding
Conditions: protein: recombinant; tags: N-terminal polyhistidine and DsRed monomer fusion (pET32a); label: CyDye5-dUTP incorporated in the synthesized complementary strand; 3' TTTTT single-stranded linker to array surface; dsDNA, one strand shown
How it was run: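 Transcription factors were each fused at the N-terminus to a polyhistidine tag plus DsRed and expressed in E. coli BL21-CodonPlus before Ni–NTA purification. Binding to a double-stranded custom Agilent array was carried out with 200 nM protein at 25 °C for 1 h in PBS, 2% BSA, salmon testes DNA and 50 µM zinc acetate. The binding signal is per-feature fluorescence intensity, in arbitrary units, on an Axon 4000B scanner.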

Chains of the proteins cited; added tags and fusions are not shown.
UniProt Q0JBA9, entry or part of it: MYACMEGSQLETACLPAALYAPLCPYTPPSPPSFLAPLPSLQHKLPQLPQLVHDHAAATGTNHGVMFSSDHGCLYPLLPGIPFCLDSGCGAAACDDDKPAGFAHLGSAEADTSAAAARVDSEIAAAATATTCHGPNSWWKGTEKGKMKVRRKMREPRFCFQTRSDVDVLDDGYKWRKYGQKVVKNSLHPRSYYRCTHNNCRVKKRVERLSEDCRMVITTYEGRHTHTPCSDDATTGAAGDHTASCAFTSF

Sequence | binding signal
TCAGTGCGAGAGCAAGGCAAGTCATGCAATACGTTTGACCCGGAGTCACCTAGTGCAG | 8640 fluorescence intensity (a.u.)
TGCGTCCCTCTTCCTTCATTCTCCTGACGCCTAGGGCCCACGGAGTCACCTAGTGCAG | 8280 fluorescence intensity (a.u.)
GCCGTGTTTTAGTGTTCTTTCTAGCTTATTTACCAAATCACGGAGTCACCTAGTGCAG | 10000 fluorescence intensity (a.u.)
CTTTTGCTTTATCTTGCTTGACTCTCTGGTTTGTCATGTGCGGAGTCACCTAGTGCAG | 11100 fluorescence intensity (a.u.)
AATCTCTTCTGACATTCGGTCAAACGTTCGATATATATAACGGAGTCACCTAGTGCAG | 9910 fluorescence intensity (a.u.)
GGTGGCGGGCGGAGGCGGGAGGGAGGTGACATGGATGGTCCGGAGTCACCTAGTGCAG | 8780 fluorescence intensity (a.u.)
TGCTCGGGACTATTATATTGTAGACTCATTTAACTGAACTCGGAGTCACCTAGTGCAG | 8070 fluorescence intensity (a.u.)
CCTCATCCGCTGCTCTGCTCCCACCATTGCTGCTCTCTCTCGGAGTCACCTAGTGCAG | 17700 fluorescence intensity (a.u.)
CACATTTGCCTTTTGACTTTTCAACCGCAAGTCCGCAACCCGGAGTCACCTAGTGCAG | 10100 fluorescence intensity (a.u.)
GGCCAGCTGATCGATCGATCTCATTCCATAAGCAATGTATCGGAGTCACCTAGTGCAG | 8100 fluorescence intensity (a.u.)
ACCGAACATACCCCACAACATCCAAAATGGCTACATGATTCGGAGTCACCTAGTGCAG | 8180 fluorescence intensity (a.u.)
TCCCACCACCACACAAATCCACGCCCGCACTACTGCCACCCGGAGTCACCTAGTGCAG | 9120 fluorescence intensity (a.u.)
GCATTGATAGCATCAACAGTTTTCTTGCGGACCCAGCTCACGGAGTCACCTAGTGCAG | 8360 fluorescence intensity (a.u.)
GGTTGAATCAAATTGTTCCTCTGTTACACTTACACATCATCGGAGTCACCTAGTGCAG | 11700 fluorescence intensity (a.u.)
TATTTGTTGTAAGGTGGGGAGGGTTGAGATTTTGACGTGCCGGAGTCACCTAGTGCAG | 10400 fluorescence intensity (a.u.)
CCCACATCAAAACCTTGAATTTTCACAGTTTCTTGCATTTCGGAGTCACCTAGTGCAG | 9890 fluorescence intensity (a.u.)
CGTCGACCTCACCGGCGCCGCATCCACGTCAAGCCGCGACCGGAGTCACCTAGTGCAG | 8410 fluorescence intensity (a.u.)
GGATGGGTTATATCTAGTATTGTGGTTGGGACTGCCTATACGGAGTCACCTAGTGCAG | 11100 fluorescence intensity (a.u.)
TTTTTGTGTGTGTGCTGTGTTCTTGGGTTTCTTGGCAATGCGGAGTCACCTAGTGCAG | 8650 fluorescence intensity (a.u.)
TCTGTATACCGTGCACGGAATCCTTGTTTGATTTAATTCACGGAGTCACCTAGTGCAG | 8520 fluorescence intensity (a.u.)
TGTAACTGTTGTAATATTCCATTGTATTTGATTAAAGACACGGAGTCACCTAGTGCAG | 8080 fluorescence intensity (a.u.)

Sequence | binding signal
CAGTTATTTGCTCTAACTTATGATGTTTCTTTCTTCAAATCGGAGTCACCTAGTGCAG | 8600 fluorescence intensity (a.u.)
GCACCACCATCTCGCATCATTTGTTTTTTCTCCCTGGAAACGGAGTCACCTAGTGCAG | 12000 fluorescence intensity (a.u.)
GGTCTCTCTTCTTCTAGAGTTCGATTTCCTCTTTTTATCACGGAGTCACCTAGTGCAG | 11500 fluorescence intensity (a.u.)
TCCAAATTCGACTCCTCTTTCCATACGTACACAATCCCTCCGGAGTCACCTAGTGCAG | 9150 fluorescence intensity (a.u.)
ATCGCCTCCGGTGTTCTGTTCCTGCTTCTCCTCGTTGTGTCGGAGTCACCTAGTGCAG | 10800 fluorescence intensity (a.u.)
TCAATTTTATCACTTTCCCAACTCACCTCTCTCATCTTTCCGGAGTCACCTAGTGCAG | 9300 fluorescence intensity (a.u.)
GGCATGGAACTGTTATATCCAATCTGTTCATTTGTTACTGCGGAGTCACCTAGTGCAG | 8660 fluorescence intensity (a.u.)
ACAGCCGTTAGCCCTCGCCGTCAATCGCAAACCCTCACACCGGAGTCACCTAGTGCAG | 9410 fluorescence intensity (a.u.)
CCTCCTCTCCCTTTTCTGCTGTTTCTCTCTCTCACACACTCGGAGTCACCTAGTGCAG | 8470 fluorescence intensity (a.u.)
TCTATACTAGTTGCCCGCTTGCAATCCTAATGGTGAAATCCGGAGTCACCTAGTGCAG | 10300 fluorescence intensity (a.u.)
CGCCGTCGTCATCTGTCCACGATATTTTTCTGGTGTTAAACGGAGTCACCTAGTGCAG | 11900 fluorescence intensity (a.u.)
ATGGGTTGAGCGAGCCTCTTGCATTTGCCTATCTAGAAATCGGAGTCACCTAGTGCAG | 9070 fluorescence intensity (a.u.)
TTCCTTCAAATCCAGATTCTAATTAATTTGTTCCTTTCGTCGGAGTCACCTAGTGCAG | 9810 fluorescence intensity (a.u.)
ACATAAGCATTAGGGCTAAAGTGCAACCTAATATGTTGCTCGGAGTCACCTAGTGCAG | 8420 fluorescence intensity (a.u.)
CTCGCCACCGGGGCCGCCATACAATTACCTCCATAAATCTCGGAGTCACCTAGTGCAG | 9010 fluorescence intensity (a.u.)
CTAACATAACTATTTGCACTTTTTTTTGTATGTACATCATCGGAGTCACCTAGTGCAG | 10900 fluorescence intensity (a.u.)
ATCCTGCTCCGCCGCGACTTCGTCTTCGTCCTCCTCCGATCGGAGTCACCTAGTGCAG | 8820 fluorescence intensity (a.u.)
CGATGTGGGTTGCTTTTGCTGCAACGGTCGTGTTTCCAGACGGAGTCACCTAGTGCAG | 9070 fluorescence intensity (a.u.)
AAACATTTTATAGATTTTCTTCCACCTAGGCATGCTTTTTCGGAGTCACCTAGTGCAG | 9090 fluorescence intensity (a.u.)
ATGGAGGGAGTATTAATTATCGTAATTAGCATTATTTTTTCGGAGTCACCTAGTGCAG | 8190 fluorescence intensity (a.u.)
TTCCTCACCGGCCACGCCTCTCTCGCCACGCCTCTTCTCCCGGAGTCACCTAGTGCAG | 8290 fluorescence intensity (a.u.)

Sequence | binding signal
AATGGTTTTATTGGTTTCAGTTTTATCTCTCAGTTTCTAACGGAGTCACCTAGTGCAG | 8700 fluorescence intensity (a.u.)
ATACACGACGCTATATTCAATTGTACTGTGCTGAATTTAACGGAGTCACCTAGTGCAG | 9720 fluorescence intensity (a.u.)
GGCCATCGAGTCGTTTTCCGTTCCAACATCAACCAACAAGCGGAGTCACCTAGTGCAG | 9300 fluorescence intensity (a.u.)
CCCACTCCGTTGTTGTTTCCTACCTGTACTGTATCGCGCGCGGAGTCACCTAGTGCAG | 9380 fluorescence intensity (a.u.)
GGCCCAACTAAGCAACCCTTTTCTTTTGGAAAAAGTATACCGGAGTCACCTAGTGCAG | 9310 fluorescence intensity (a.u.)
GAACAAGGGGACGTTTTTGTTTGTTTGCTCTCGTGCCTTTCGGAGTCACCTAGTGCAG | 14900 fluorescence intensity (a.u.)
TCTCGCTCTCGCCATCTGCTGCTTGCCACCACCACATCGTCGGAGTCACCTAGTGCAG | 8380 fluorescence intensity (a.u.)
CTTCTATTTTCTTTCTGCTCTTCTCTTCTCTTGTCTACTTCGGAGTCACCTAGTGCAG | 10300 fluorescence intensity (a.u.)
AATTCCCATTTCCGTCACGACTCTGACTGCCCTCGCTAATCGGAGTCACCTAGTGCAG | 8400 fluorescence intensity (a.u.)
ACCGCCGCTTTGTTTGCAGCTCGCGCTTCCTGTCGACATGCGGAGTCACCTAGTGCAG | 9320 fluorescence intensity (a.u.)
CTCCTCGCCAACCACACCACATCTCAAACTCTCTACACACCGGAGTCACCTAGTGCAG | 10200 fluorescence intensity (a.u.)
CTCTCGTCTCATCTTCTTCCTCAACTCTCTTCTCATATCTCGGAGTCACCTAGTGCAG | 8780 fluorescence intensity (a.u.)
ATACACATATTATCTCACAATACATGCATCGATTAAAATACGGAGTCACCTAGTGCAG | 8040 fluorescence intensity (a.u.)
CACACTGTCATGTTCCTCTGACCAAACAGCACAAGGTTGCCGGAGTCACCTAGTGCAG | 8210 fluorescence intensity (a.u.)
GATTTTTATTTTACAAATATGTCGTTTTGTTTTGTTCATTCGGAGTCACCTAGTGCAG | 10000 fluorescence intensity (a.u.)
GCCTGGGATGAGAATGGTGTGTTTATTTACACTACCCTGACGGAGTCACCTAGTGCAG | 10300 fluorescence intensity (a.u.)
CCCGTGCCACCGTATCATTCACTCCTCCCGTCCCTATCGCCGGAGTCACCTAGTGCAG | 9270 fluorescence intensity (a.u.)
CTCGCGGTTGATCTCTCCCGGCCTTGTACGCCACCCGCGTCGGAGTCACCTAGTGCAG | 9250 fluorescence intensity (a.u.)
CTTGCCATATGGGTGTCTCGTGTTTCTTTGTTACGAGTGTCGGAGTCACCTAGTGCAG | 9290 fluorescence intensity (a.u.)
CCATCTTCATCTTCTTGTCGTCTTCGTCTCGACAGACAAACGGAGTCACCTAGTGCAG | 11300 fluorescence intensity (a.u.)
TAAGATAGCCTGCCTTTTGAGCCTGTGTTACTTACTACTCCGGAGTCACCTAGTGCAG | 9470 fluorescence intensity (a.u.)

A second format for some results above:
AATTCCCATTTCCGTCACGACTCTGACTGCCCTCGCTAATCGGAGTCACCTAGTGCAG
  binding signal = 8400 fluorescence intensity (a.u.)
ACCGCCGCTTTGTTTGCAGCTCGCGCTTCCTGTCGACATGCGGAGTCACCTAGTGCAG
  binding signal = 9320 fluorescence intensity (a.u.)
CTCCTCGCCAACCACACCACATCTCAAACTCTCTACACACCGGAGTCACCTAGTGCAG
  binding signal = 10200 fluorescence intensity (a.u.)
CTCTCGTCTCATCTTCTTCCTCAACTCTCTTCTCATATCTCGGAGTCACCTAGTGCAG
  binding signal = 8780 fluorescence intensity (a.u.)

The listing continues.

Sequence | binding signal
ACTCACCACACCAGCCGCCGCCGCCTCCTGAGCCACGCAGCGGAGTCACCTAGTGCAG | 9130 fluorescence intensity (a.u.)
GCCGCCTCGTCTGCAACCGCCTCCGCCTCCACGACCGACTCGGAGTCACCTAGTGCAG | 10100 fluorescence intensity (a.u.)
ACTGAACTCTCTGTGGGTTGTTGAACAACCGCTGGATCATCGGAGTCACCTAGTGCAG | 8440 fluorescence intensity (a.u.)
AACATATTTATGGGGTAAATTTATCATTCTTGTCTTGATACGGAGTCACCTAGTGCAG | 9380 fluorescence intensity (a.u.)
TTATTATTGTTATTTTTTTCCGTTTTTGTTTCTGAGCATTCGGAGTCACCTAGTGCAG | 8660 fluorescence intensity (a.u.)
TGATGGGTGGGTATGCGAAGCTTGGTAAATTTCAAGAAAGCGGAGTCACCTAGTGCAG | 8490 fluorescence intensity (a.u.)
AGGAGAGAGAGAGGGAGGGTAGGTGAGGGGATTTGATATTCGGAGTCACCTAGTGCAG | 9440 fluorescence intensity (a.u.)
ATAATACGGACAATCAAACATATTTTAAAAAGTCAACGACCGGAGTCACCTAGTGCAG | 8120 fluorescence intensity (a.u.)
CTATTTCACCGCTTCGCTCCATCCATCCGTTCCGTTTAGTCGGAGTCACCTAGTGCAG | 13800 fluorescence intensity (a.u.)
ACTAATACTTATCCATCCACCCACTCCCCTGTGCATTAACCGGAGTCACCTAGTGCAG | 8800 fluorescence intensity (a.u.)
CCCCATTTCGTCTCGCGGTGAGTTTTTGGTAGTTTAGTTTCGGAGTCACCTAGTGCAG | 10600 fluorescence intensity (a.u.)
CTTCTTCTGCGCCGCCGCCGCCGCCGCCGCCGCCGCCGGACGGAGTCACCTAGTGCAG | 8090 fluorescence intensity (a.u.)
CGTTGGCTTTTGCTTTGCTTTTTCTCTTGCGCGTTGTGCTCGGAGTCACCTAGTGCAG | 12700 fluorescence intensity (a.u.)
TTTTTTTTTTTTGTTGGGCTTGTGACTTGTGGGGTGTGCACGGAGTCACCTAGTGCAG | 11600 fluorescence intensity (a.u.)
AATCCAGGTATGCACTAGCTTGTTTTGGCAGGTCAGCTGACGGAGTCACCTAGTGCAG | 10500 fluorescence intensity (a.u.)
TTTCACGCTACATTTTTAATCCTGGGAATATTGGGCTGGTCGGAGTCACCTAGTGCAG | 10500 fluorescence intensity (a.u.)
TTCTTGCCTTTATCTTGCAGCCATTGCACACACCTCACTTCGGAGTCACCTAGTGCAG | 10600 fluorescence intensity (a.u.)
TTTATCAATTGTTCTACAATATGTCATTGGGTTGGGCCTTCGGAGTCACCTAGTGCAG | 9740 fluorescence intensity (a.u.)
CGACATCTCTGAAACATTTCTCCTCGACCACGGCAACCCACGGAGTCACCTAGTGCAG | 8630 fluorescence intensity (a.u.)
ATTATTTTTATCCTCGTTTGCACGAAAGAGCATTTTATAACGGAGTCACCTAGTGCAG | 8860 fluorescence intensity (a.u.)
TTCCGGGGCCTTATCTCTCTCTCTCTCCGAAACAGCCGACCGGAGTCACCTAGTGCAG | 8380 fluorescence intensity (a.u.)
